Measurements as given in patent publication US20250345512A1, “COMBINATION SODIUM-GLUCOSE COTRANSPORTER INHIBITOR (SGLTI) INSULIN THERAPY FOR GLYCEMIC CONTROL IN TYPE 1 DIABETES” (University of Virginia Patent Foundation, priority 2022, published 2025).

Tested on: participants with T1D
Assay: Same trial (NCT04201496): injected insulin amounts (technical performance metric)
Type: in vivo, human
Conditions: for infused insulin decrease / reduction: EMPA vs NOEMPA on same insulin system; for Injected Insulin (IU/kg · day): n = 16, mean ± SD
[1] = daytime (7:00-23:00), CIQ-EMPA vs. BIQ-NOEMPA, BIQ-EMPA vs. CIQ-NOEMPA
[2] = daytime (7:00-23:00), CIQ-EMPA vs. CIQ-NOEMPA, BIQ-EMPA vs. BIQ-NOEMPA
[3] = overall, CIQ-EMPA vs. BIQ-NOEMPA, BIQ-EMPA vs. CIQ-NOEMPA
[4] = overall, CIQ-EMPA vs. CIQ-NOEMPA, BIQ-EMPA vs. BIQ-NOEMPA
[5] = overnight, CIQ-EMPA vs. BIQ-NOEMPA, BIQ-EMPA vs. CIQ-NOEMPA

Row | SMILES | infused insulin decrease / reduction (24/7, listed as PLGS-EMPA) | Difference (95% CI): Total Injected Insulin (IU/kg · day) [1] | Difference (95% CI): Total Injected Insulin (IU/kg · day) [2] | Injected Insulin (IU/kg · day) (daytime (7:00-23:00)) | Difference: Total Injected Insulin (IU/kg · day) [3] | Difference: Total Injected Insulin (IU/kg · day) [4] | Injected Insulin (IU/kg · day) (overall) | Difference (95% CI): Total Injected Insulin (IU/kg · day) [5] | Difference (95% CI): Total Injected Insulin (IU/kg · day) (overnight, CIQ-EMPA vs. CIQ-NOEMPA, BIQ-EMPA vs. BIQ-NOEMPA) | infused insulin decrease / reduction (overnight, listed as PLGS-EMPA) | Injected Insulin (IU/kg · day) (overnight) | infused insulin decrease / reduction (24/7, listed as AID-EMPA) | Difference (95% CI): Total Injected Insulin (IU/kg · day) (daytime (7:00-23:00), head prints CIQ-EMPA vs. BIQ-NOEMPA) | Difference: Total Injected Insulin (IU/kg · day) (overall, head prints CIQ-EMPA vs. BIQ-NOEMPA) | Difference: Total Injected Insulin (IU/kg · day) (overall, CIQ-EMPA vs. CIQ-NOEMPA, BIQ-EMPA vs. BIQ-NOEMPA, listed as AID-EMPA) | Difference (95% CI): Total Injected Insulin (IU/kg · day) (overnight, CIQ-EMPA vs. BIQ-EMPA) | Difference (95% CI): Total Injected Insulin (IU/kg · day) (overnight, CIQ-EMPA vs. CIQ-NOEMPA, BIQ-EMPA vs. BIQ-NOEMPA, listed as AID-EMPA) | infused insulin decrease / reduction (overnight, listed as AID-EMPA)
1 | OC[C@H]1O[C@@H](c2ccc(Cl)c(Cc3ccc(O[C@H]4CCOC4)cc3)c2)[C@H](O)[C@@H](O)[C@@H]1O [BIQ-EMPA, empagliflozin] | 25% | −0.15 IU/kg · day | −0.09 IU/kg · day | 0.37 ± 0.09 IU/kg · day | −0.20 IU/kg · day | −0.56 IU/kg · day | 0.50 ± 0.12 IU/kg · day | −0.00 IU/kg · day | −0.05 IU/kg · day | 40% | 0.09 ± 0.03 IU/kg · day | – | – | – | – | – | – | –
2 | OC[C@H]1O[C@@H](c2ccc(Cl)c(Cc3ccc(O[C@H]4CCOC4)cc3)c2)[C@H](O)[C@@H](O)[C@@H]1O [CIQ-EMPA, empagliflozin] | – | −0.06 IU/kg · day | −0.11 IU/kg · day | 0.41 ± 0.13 IU/kg · day | −0.13 IU/kg · day | −0.17 IU/kg · day | 0.52 ± 0.15 IU/kg · day | 0(−0.009 IU/kg · day | – | – | 0.11 ± 0.04 IU/kg · day | 24% | 0.04 IU/kg · day | 0.03 IU/kg · day | −0.17 IU/kg · day | 0.02(0 IU/kg · day | −0.06 IU/kg · day | 35.3%
